Results taken from patent publication US20050271739A1, “Methods and compositions for accelerating alcohol metabolism” (priority 2004, published 2005).
For some assays here: For at least one compound, name, drawing or mass did not settle the structure. Some of these results come from one statement about several compounds together.

Assays:
Assay type in all cases: biochemical
NADH oxidation = NADH oxidation stimulated by hormones with porcine liver extracts; settings: hormone used alone, vs. without hormone
alcohol dehydrogenase [1] = assay: Effect of hormonal compounds on enzyme activity of alcohol dehydrogenase; parameters: concentration or dose not given beside the values; settings: Control = 100.0
alcohol dehydrogenase [2] = assay: Effect of thyroxine analogues on alcohol dehydrogenase activity; settings: Dosage 17 μM

In the case of C[C@]12CC[C@@H]3c4ccc(O)cc4CC[C@H]3[C@@H]1CC[C@@H]2O [estradiol, Estradiol], the “Increase of NADH oxidation” value (NADH oxidation) is reported as 5-15 times.

In the case of N[C@@H](Cc1cc(I)c(Oc2cc(I)c(O)c(I)c2)c(I)c1)C(=O)O [L-thyroxine, L-Thyroxine], the “Increase of NADH oxidation” value (NADH oxidation) is reported as 5-15 times.

For C[C@]12CC[C@@H]3c4ccc(O)cc4CC[C@H]3[C@@H]1CCC2=O [Estrone], the “Relative activity (%)” value (alcohol dehydrogenase [1]) was 156%.

For O=C(O)Cc1cc(I)c(Oc2cc(I)c(O)c(I)c2)c(I)c1 [3,3′5,5′-tetraiodothyroacetic acid], the “Absorbance Change (units/min @ 340 nm)” value (alcohol dehydrogenase [2]) was 0.71 units/min and the “Relative Increase (%)” value (alcohol dehydrogenase [2]; None = 100) was 710%.
